Test results published in paper PMC10733359.
Results are given in words; binding and its absence hold for the method and conditions named. Binding seen in cells or lysates may run through a third protein. These calls come from enrichment with a bait or labelling near it, and not all partners need be listed.

Protein sequences, listed by entry. Tags and fused reporters are not part of them.
UniProt O88569: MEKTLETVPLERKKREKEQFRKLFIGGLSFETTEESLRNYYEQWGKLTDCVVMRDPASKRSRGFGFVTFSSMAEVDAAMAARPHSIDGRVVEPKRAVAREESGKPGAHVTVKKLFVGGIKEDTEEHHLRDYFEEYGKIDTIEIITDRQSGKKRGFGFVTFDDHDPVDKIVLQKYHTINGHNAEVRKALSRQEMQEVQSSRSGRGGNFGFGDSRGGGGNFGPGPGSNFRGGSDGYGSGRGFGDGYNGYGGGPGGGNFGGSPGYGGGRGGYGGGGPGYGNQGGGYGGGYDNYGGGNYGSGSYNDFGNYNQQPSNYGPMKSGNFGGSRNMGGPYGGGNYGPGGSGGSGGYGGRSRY
UniProt Q99104: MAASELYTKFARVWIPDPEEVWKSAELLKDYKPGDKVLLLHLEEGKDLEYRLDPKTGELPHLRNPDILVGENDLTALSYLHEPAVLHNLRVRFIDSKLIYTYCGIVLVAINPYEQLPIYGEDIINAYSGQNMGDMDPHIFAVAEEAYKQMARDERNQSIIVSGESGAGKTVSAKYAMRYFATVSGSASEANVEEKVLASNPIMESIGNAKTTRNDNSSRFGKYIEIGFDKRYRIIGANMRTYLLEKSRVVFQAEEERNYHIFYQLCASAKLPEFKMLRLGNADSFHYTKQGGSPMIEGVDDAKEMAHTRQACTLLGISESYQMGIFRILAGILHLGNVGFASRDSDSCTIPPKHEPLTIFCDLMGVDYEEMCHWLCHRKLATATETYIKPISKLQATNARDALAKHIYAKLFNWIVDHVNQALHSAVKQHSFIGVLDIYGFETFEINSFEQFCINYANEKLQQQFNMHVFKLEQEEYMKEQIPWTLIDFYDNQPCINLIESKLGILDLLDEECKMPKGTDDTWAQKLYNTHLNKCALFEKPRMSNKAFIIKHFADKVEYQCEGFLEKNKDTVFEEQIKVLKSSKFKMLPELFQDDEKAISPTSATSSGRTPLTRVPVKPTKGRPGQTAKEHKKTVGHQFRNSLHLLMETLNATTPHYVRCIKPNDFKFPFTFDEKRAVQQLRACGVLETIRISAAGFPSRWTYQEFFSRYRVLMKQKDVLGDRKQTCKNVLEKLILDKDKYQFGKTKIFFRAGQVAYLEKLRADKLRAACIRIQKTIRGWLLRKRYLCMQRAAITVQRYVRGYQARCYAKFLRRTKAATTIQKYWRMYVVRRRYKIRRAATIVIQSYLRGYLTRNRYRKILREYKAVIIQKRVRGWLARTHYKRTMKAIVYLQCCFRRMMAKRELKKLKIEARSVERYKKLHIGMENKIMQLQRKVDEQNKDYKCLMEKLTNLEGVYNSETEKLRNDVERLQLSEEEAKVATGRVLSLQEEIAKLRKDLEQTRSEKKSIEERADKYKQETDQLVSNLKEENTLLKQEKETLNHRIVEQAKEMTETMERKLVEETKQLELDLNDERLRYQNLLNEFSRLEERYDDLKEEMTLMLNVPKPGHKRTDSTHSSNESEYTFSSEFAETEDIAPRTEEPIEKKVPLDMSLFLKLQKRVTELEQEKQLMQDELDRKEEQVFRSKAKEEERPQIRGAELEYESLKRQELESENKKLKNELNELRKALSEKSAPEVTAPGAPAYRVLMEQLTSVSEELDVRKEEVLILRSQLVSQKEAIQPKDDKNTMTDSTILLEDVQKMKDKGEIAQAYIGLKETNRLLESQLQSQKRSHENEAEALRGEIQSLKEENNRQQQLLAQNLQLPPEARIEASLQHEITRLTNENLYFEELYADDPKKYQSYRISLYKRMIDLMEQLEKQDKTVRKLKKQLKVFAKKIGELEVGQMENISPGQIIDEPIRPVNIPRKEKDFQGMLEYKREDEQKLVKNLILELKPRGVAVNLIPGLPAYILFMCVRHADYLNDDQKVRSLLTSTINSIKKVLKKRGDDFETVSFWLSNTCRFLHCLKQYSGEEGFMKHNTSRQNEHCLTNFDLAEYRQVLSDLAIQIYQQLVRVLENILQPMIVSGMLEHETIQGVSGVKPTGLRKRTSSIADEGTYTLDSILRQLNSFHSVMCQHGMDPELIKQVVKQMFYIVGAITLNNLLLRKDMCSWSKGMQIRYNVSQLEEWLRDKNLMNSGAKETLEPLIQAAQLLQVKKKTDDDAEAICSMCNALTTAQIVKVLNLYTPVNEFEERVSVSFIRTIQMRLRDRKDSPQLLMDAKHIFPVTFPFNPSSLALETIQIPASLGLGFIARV
UniProt Q6R891: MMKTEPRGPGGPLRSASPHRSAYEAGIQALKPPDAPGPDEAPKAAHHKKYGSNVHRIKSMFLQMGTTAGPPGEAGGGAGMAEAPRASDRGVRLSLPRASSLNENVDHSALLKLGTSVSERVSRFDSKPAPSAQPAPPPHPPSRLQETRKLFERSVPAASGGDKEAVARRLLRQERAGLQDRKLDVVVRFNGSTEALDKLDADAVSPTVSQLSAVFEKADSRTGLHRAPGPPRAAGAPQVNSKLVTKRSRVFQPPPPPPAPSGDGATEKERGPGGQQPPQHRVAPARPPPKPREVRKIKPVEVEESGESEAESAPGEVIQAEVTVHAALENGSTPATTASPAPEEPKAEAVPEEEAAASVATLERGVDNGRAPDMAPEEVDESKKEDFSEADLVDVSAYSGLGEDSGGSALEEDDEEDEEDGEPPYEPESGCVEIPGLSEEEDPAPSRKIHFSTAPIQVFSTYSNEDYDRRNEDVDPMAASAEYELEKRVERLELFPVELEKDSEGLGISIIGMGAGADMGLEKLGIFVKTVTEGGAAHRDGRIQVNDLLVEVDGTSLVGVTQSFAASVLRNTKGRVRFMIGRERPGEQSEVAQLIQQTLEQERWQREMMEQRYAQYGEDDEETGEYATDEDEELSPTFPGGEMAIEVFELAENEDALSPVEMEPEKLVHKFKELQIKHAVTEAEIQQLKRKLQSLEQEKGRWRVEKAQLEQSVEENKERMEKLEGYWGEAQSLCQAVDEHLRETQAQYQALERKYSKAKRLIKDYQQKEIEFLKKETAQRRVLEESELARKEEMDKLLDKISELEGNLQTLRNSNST
UniProt Q93009: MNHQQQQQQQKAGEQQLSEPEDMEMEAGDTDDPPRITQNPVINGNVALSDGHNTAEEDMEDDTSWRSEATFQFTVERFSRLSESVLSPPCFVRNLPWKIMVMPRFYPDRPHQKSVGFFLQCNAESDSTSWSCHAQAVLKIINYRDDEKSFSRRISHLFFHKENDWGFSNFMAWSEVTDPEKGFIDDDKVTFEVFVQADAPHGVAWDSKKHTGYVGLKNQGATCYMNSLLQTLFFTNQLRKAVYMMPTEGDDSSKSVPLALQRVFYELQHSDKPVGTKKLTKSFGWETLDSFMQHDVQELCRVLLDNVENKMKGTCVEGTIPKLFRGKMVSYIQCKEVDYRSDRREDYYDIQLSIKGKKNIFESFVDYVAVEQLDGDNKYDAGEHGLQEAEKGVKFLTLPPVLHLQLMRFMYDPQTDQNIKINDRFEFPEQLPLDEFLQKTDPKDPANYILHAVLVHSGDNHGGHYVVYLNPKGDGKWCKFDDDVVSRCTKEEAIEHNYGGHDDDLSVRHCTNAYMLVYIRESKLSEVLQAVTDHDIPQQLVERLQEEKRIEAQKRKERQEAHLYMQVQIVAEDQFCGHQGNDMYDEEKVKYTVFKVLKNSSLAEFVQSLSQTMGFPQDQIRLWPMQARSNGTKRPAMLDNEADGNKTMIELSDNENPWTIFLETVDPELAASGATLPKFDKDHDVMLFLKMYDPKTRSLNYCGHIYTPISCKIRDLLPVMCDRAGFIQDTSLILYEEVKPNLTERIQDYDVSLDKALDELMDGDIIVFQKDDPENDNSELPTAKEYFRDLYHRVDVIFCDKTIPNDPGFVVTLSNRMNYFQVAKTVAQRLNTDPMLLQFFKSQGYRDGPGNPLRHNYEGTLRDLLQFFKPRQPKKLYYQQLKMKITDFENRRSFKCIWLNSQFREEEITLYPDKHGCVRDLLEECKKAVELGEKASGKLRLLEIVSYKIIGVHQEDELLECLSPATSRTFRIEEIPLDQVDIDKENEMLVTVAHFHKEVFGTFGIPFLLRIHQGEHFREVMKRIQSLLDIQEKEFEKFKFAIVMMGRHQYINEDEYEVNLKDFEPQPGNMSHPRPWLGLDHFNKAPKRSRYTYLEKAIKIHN
UniProt P16220: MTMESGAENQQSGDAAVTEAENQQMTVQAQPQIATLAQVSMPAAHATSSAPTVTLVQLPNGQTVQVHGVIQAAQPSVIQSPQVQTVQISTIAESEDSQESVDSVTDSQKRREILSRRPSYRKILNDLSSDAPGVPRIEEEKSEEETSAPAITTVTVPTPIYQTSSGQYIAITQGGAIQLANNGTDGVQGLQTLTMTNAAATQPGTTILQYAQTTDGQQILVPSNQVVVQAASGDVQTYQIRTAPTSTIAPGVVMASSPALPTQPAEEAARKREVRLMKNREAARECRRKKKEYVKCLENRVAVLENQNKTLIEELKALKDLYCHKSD

T1: melanoma-associated antigen D1 (Maged1), mouse (mouse (endogenous in thalamus)) (UniProt Q9QYH6)
T1 sequence: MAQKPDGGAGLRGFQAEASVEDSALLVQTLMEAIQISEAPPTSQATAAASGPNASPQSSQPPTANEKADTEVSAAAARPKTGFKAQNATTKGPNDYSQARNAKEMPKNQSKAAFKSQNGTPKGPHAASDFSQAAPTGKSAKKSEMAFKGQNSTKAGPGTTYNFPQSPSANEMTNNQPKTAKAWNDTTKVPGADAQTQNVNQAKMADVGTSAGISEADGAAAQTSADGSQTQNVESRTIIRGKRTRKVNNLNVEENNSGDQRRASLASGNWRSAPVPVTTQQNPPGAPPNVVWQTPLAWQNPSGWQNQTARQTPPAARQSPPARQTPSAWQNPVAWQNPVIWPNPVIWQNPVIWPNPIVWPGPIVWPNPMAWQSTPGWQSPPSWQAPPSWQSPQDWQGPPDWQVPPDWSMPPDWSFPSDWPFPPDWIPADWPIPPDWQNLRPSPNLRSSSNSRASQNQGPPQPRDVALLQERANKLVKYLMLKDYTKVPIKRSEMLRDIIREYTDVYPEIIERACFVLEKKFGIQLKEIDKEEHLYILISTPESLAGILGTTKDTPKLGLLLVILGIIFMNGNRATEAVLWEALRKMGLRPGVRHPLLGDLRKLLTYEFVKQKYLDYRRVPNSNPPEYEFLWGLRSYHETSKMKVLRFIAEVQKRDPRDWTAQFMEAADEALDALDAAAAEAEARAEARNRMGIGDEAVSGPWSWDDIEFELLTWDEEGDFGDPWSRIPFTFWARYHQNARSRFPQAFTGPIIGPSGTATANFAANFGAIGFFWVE

T2: MAGED1, human (human (endogenous in HEK293T and SH-SY5Y)) (UniProt Q9Y5V3)
T2 sequence: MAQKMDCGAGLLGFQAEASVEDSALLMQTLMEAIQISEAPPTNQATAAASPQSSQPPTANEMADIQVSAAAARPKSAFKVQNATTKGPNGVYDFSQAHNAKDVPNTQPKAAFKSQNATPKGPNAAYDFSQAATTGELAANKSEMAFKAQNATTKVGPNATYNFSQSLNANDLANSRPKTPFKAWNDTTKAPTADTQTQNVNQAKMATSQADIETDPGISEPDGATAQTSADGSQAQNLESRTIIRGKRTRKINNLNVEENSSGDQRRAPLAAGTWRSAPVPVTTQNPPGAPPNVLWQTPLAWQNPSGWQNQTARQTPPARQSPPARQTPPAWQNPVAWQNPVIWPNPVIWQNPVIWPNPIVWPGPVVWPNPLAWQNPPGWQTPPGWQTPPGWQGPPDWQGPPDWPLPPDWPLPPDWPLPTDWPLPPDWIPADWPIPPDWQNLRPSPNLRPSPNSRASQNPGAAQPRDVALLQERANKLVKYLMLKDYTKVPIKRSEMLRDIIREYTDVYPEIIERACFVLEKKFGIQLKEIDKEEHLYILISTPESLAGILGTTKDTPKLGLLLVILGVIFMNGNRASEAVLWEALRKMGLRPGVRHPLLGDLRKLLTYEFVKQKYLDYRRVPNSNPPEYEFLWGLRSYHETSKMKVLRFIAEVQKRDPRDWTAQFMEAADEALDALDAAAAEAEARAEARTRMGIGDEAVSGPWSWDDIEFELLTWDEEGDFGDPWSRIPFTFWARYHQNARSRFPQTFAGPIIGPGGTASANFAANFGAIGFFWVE

B1: Praja1, mouse (protein, UniProt O55176 1-578)
chain: MSHQERIASQRRTTAEVPMHRSTANQSKRSRSPFASTRRRWDDSESSGASLAVESEDYSRYPPREYRASGSRRGLAYGHIDTVVARDSEEEGAGPVDRLPVRGKAGKFKDDPEKGARSSRFTSVNHDAKEECGKVESPPAARCSARRAELSKQNGSSASQISSAEGRAAAKGNNSLERERQNLPARPSRAPVSICGGGENTPKSAEEPVVRPKVRNVATPNCMKPKVFFDTDDDDDVPHSTSRWRDAADAEEAHAEGLARRGRGEAASSSEPRYAEDQDARSEQAKADKVPRRRRTMADPDFWAYTDDYYRYYEEDSDSDKEWMAALRRKYRSREQPQSSSGESWELLPGKEELERQQAGAGSLASAGSNGSGYPEEVQDPSLQEEEQASLEEGEIPWLRYNENESSSEGDNESTHELIQPGMFMLDGNNNLEDDSSVSEDLEVDWSLFDGFADGLGVAEAISYVDPQFLTYMALEERLAQAMETALAHLESLAVDVEVANPPASKESIDALPEILVTEDHGAVGQEMCCPICCSEYVKGEVATELPCHHYFHKPCVSIWLQKSGTCPVCRCMFPPPL
B2: Dbn1, mouse (protein, UniProt Q9QXS6 1-706)
chain: MAGVSFSGHRLELLAAYEEVIREESAADWALYTYEDGSDDLKLAASGEGGLQELSGHFENQKVMYGFCSVKDSQAALPKYVLINWVGEDVPDARKCACASHVAKVAEFFQGVDVIVNASSVEDIDAGAIGQRLSNGLARLSSPVLHRLRLREDENAEPVGTTYQKTDAAVEMKRINREQFWEQAKKEEELRKEEERKKALDARLRFEQERMEQERQEQEERERRYREREQQIEEHRRKQQSLEAEEAKRRLKEQSIFGDQRDEEEESQMKKSESEVEEAAAIIAQRPDNPREFFRQQERVASASGGSCDAPAPAPFNHRPGRPYCPFIKASDSGPSSSSSSSSSPPRTPFPYITCHRTPNLSSSLPCSHLDSHRRMAPTPIPTRSPSDSSTASTPIAEQIERALDEVTSSQPPPPPPPPPPTQEAQETTPSLDEELSKEAKVTAAPEVWAGCAAEPPQAQEPPLLQSSPLEDSMCTESPEQAALAAPAEPAASVTSVADVHAADTIETTTATTDTTIANNVTPAAASLIDLWPGNGEEASTLQAEPRVPTPPSGAEASLAEVPLLNEAAQEPLPPVGEGCANLLNFDELPEPPATFCDPEEEVGETLAASQVLTMPSALEEVDQVLEQELEPEPHLLTNGETTQKEGTQASEGYFSQSQEEEFAQSEEPCAKVPPPVFYNKPPEIDITCWDADPVPEEEEGFEGGD
B3: MYSM1, human (enzyme, UniProt Q5VVJ2 1-828)
chain: MAAEEADVDIEGDVVAAAGAQPGSGENTASVLQKDHYLDSSWRTENGLIPWTLDNTISEENRAVIEKMLLEEEYYLSKKSQPEKVWLDQKEDDKKYMKSLQKTAKIMVHSPTKPASYSVKWTIEEKELFEQGLAKFGRRWTKISKLIGSRTVLQVKSYARQYFKNKVKCGLDKETPNQKTGHNLQVKNEDKGTKAWTPSCLRGRADPNLNAVKIEKLSDDEEVDITDEVDELSSQTPQKNSSSDLLLDFPNSKMHETNQGEFITSDSQEALFSKSSRGCLQNEKQDETLSSSEITLWTEKQSNGDKKSIELNDQKFNELIKNCNKHDGRGIIVDARQLPSPEPCEIQKNLNDNEMLFHSCQMVEESHEEEELKPPEQEIEIDRNIIQEEEKQAIPEFFEGRQAKTPERYLKIRNYILDQWEICKPKYLNKTSVRPGLKNCGDVNCIGRIHTYLELIGAINFGCEQAVYNRPQTVDKVRIRDRKDAVEAYQLAQRLQSMRTRRRRVRDPWGNWCDAKDLEGQTFEHLSAEELAKRREEEKGRPVKSLKVPRPTKSSFDPFQLIPCNFFSEEKQEPFQVKVASEALLIMDLHAHVSMAEVIGLLGGRYSEVDKVVEVCAAEPCNSLSTGLQCEMDPVSQTQASETLAVRGFSVIGWYHSHPAFDPNPSLRDIDTQAKYQSYFSRGGAKFIGMIVSPYNRNNPLPYSQITCLVISEEISPDGSYRLPYKFEVQQMLEEPQWGLVFEKTRWIIEKYRLSHSSVPMDKIFRRDSDLTCLQKLLECMRKTLSKVTNCFMAEEFLTEIENLFLSNYKSNQENGVTEENCTKELLM

What follows are molecules tested against T1, melanoma-associated antigen D1 (Maged1), mouse (mouse (endogenous in thalamus)) (assay: affinity purification with mass spectrometry; anti-Maged1 antibody on Dynabeads Protein A, 500 ug thalamus lysate supernatant (50 mM Tris HCl pH 8.0, 150 mM NaCl, 1 mM EDTA, 0.5 % NP-40), overnight 4 °C; saline- and cocaine-treated control mice and cocaine-treated Maged1-cKO mice; LC-MS/MS).

binding, binds:
Neb1, mouse
hnRNPA2/B1, mouse (from UniProt O88569 1-353)
Myo5a, mouse (from UniProt Q99104 1-1853)
Neb2, mouse (from UniProt Q6R891 1-817)
B1
B2

Each molecule was assayed against T2, MAGED1, human (human (endogenous in HEK293T and SH-SY5Y)) (assay: affinity purification with mass spectrometry; IP of endogenous MAGED1 from HEK293T lysate (50 mM Tris-HCl pH 7.5, 150 mM NaCl, 1% Triton X-100), protein A agarose, overnight 4 °C; control: MAGED1 KO HEK293T (C1); TMT LC-MS/MS).

binding, binds:
USP7, human (from UniProt Q93009 1-1102) (enzyme)

These molecules were tested against T2, MAGED1, human (human (endogenous in HEK293T and SH-SY5Y)) (assay: affinity purification with mass spectrometry; IP of endogenous MAGED1 from SH-SY5Y lysate (50 mM Tris-HCl pH 7.5, 150 mM NaCl, 1% Triton X-100), protein A agarose, overnight 4 °C; control: rabbit IgG IP; TMT LC-MS/MS).

binding, binds:
CREB, human (from UniProt P16220 1-327)
USP7, human (from UniProt Q93009 1-1102) (enzyme)
B3
